Experimental data: PubChem BioAssay AID1224828 (NIAID, 2016)
Test: 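Knock-downs that increase or decrease LPS-induced p65 nuclear translocation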 (primary screen). Cell system: mouse RAW264.7 G9 macrophage reporter cells (GFP-p65, Tnf promoter-mCherry). Reagents: siRNA pool against mouse genes, 100 nM. Timing: 2 days siRNA transfection, then 40 min LPS before fixation. Conditions: LPS (Salmonella minnesota R595) at 10 ng/ml. Measurement: 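Imaged p65 nuclear translocation ratio, normalised to the plate median, converted to robust z-scores and averaged across two replicates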. Scale: p65 translocation robust z-score: higher = more nuclear NF-kappaB p65 after LPS than the plate median; nuclear/cytoplasmic p65 ratio: higher = more nuclear NF-kappaB p65. Call rule: 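Active if robust z is above 3.3 (negative regulators) or below -1.56, the Tlr4 control median (positive regulators); activity score 50 or more; control wells not called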. Calls: active = hit (p65 shift raised or lowered); inactive = no clear change.
The deposit covers about 17,000 reagents; this is an unselected part. 762 of them (4.5%) were called active. 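Active calls include both raised and lowered p65 entry, mostly lowered; wells with fewer than 50 cells lack a z-score.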 Raw values are not corrected between plates. A reagent listed more than once was tested more than once; the source does not tell the runs apart.

gene symbol	p65 translocation robust z-score	nuclear/cytoplasmic p65 ratio, rep 1	nuclear/cytoplasmic p65 ratio, rep 2	low cell count flag	Outcome
Mup2 (major urinary protein 2)	0.89	2.06	1.61	enough cells to score	inactive
Tmprss11f (transmembrane protease, serine 11f)	1.07	1.35	1.44	enough cells to score	inactive
Cln5 (ceroid-lipofuscinosis, neuronal 5)	-1.57	1.29	1.15	enough cells to score	active
Plin5 (perilipin 5)	-0.8	1.26	1.07	enough cells to score	inactive
Snx17 (sorting nexin 17)	-0.03	1.36	1.27	enough cells to score	inactive
Pla2g10 (phospholipase A2, group X)	1.42	1.47	1.8	enough cells to score	inactive
Tspan33 (tetraspanin 33)	-0.64	1.49	1.32	enough cells to score	inactive
Bacc1 (BPTF associated chromatin complex component 1)	1.26	1.64	1.7	enough cells to score	inactive
Gtse1 (G two S phase expressed protein 1)	0.98	1.53	1.53	enough cells to score	inactive
Skic2 (SKI2 subunit of superkiller complex)	-0.66	1.34	1.18	enough cells to score	inactive
Cdkn1a (cyclin dependent kinase inhibitor 1A)	-1.73	1.36	1.2	enough cells to score	active
Stard4 (StAR related lipid transfer domain containing 4)	-0.18	1.41	1.2	enough cells to score	inactive
Erlin2 (ER lipid raft associated 2)	-1.38	1.29	1.7	enough cells to score	inactive

An excerpt from the list above, for reference:
gene symbol	p65 translocation robust z-score	nuclear/cytoplasmic p65 ratio, rep 1	nuclear/cytoplasmic p65 ratio, rep 2	low cell count flag	Outcome
Tspan33 (tetraspanin 33)	-0.64	1.49	1.32	enough cells to score	inactive
Bacc1 (BPTF associated chromatin complex component 1)	1.26	1.64	1.7	enough cells to score	inactive
Gtse1 (G two S phase expressed protein 1)	0.98	1.53	1.53	enough cells to score	inactive

Additional reagents follow:
gene symbol	p65 translocation robust z-score	nuclear/cytoplasmic p65 ratio, rep 1	nuclear/cytoplasmic p65 ratio, rep 2	low cell count flag	Outcome
Scgb1b2 (secretoglobin, family 1B, member 2)	0.3	1.73	1.61	enough cells to score	inactive
A930025A13Rik (RIKEN cDNA A930025A13 gene)	0.15	1.45	1.49	enough cells to score	inactive
Cmpk1 (cytidine/uridine monophosphate kinase 1)		2.27	1.44	fewer than 50 cells per well; well left out of scoring	inactive
Cmpk1 (cytidine/uridine monophosphate kinase 1)	1.45	1.66	1.72	enough cells to score	inactive
Edrf1 (erythroid differentiation regulatory factor 1)		1.82	1.68	fewer than 50 cells per well; well left out of scoring	inactive
Xrn2 (5'-3' exoribonuclease 2)	-0.53	1.21	1.19	enough cells to score	inactive
Mixl1 (Mix paired-like homeobox)	1.85	1.57	1.69	enough cells to score	inactive
Serpina3c (serine (or cysteine) peptidase inhibitor, clade A, member 3C)	-0.02	1.41	1.24	enough cells to score	inactive
Syt14 (synaptotagmin XIV)		1.36	1.19	fewer than 50 cells per well; well left out of scoring	inactive
Fbxl19 (F-box and leucine-rich repeat protein 19)	0.27	1.46	1.57	enough cells to score	inactive
Atp5mc3 (ATP synthase membrane subunit c locus 3)	0.2	1.58	1.59	enough cells to score	inactive
BC002059 (cDNA sequence BC002059)	-1.24	1.31	1.72	enough cells to score	inactive
Tbc1d23 (TBC1 domain family, member 23)	-1.77	1.05	1.14	enough cells to score	active
Mrpl33 (mitochondrial ribosomal protein L33)	-2.21	1.45	1.24	enough cells to score	active
Cdk17 (cyclin dependent kinase 17)	0.11	1.66	1.39	enough cells to score	inactive
Commd4 (COMM domain containing 4)	-0.32	1.51	1.75	enough cells to score	inactive
Dmac2l (distal membrane arm assembly component 2 like)	0.37	1.55	1.65	enough cells to score	inactive
Zhx2 (zinc fingers and homeoboxes 2)	-1.86	1.22	1.28	enough cells to score	active
Podn (podocan)		1.19	0.961	fewer than 50 cells per well; well left out of scoring	inactive
Vmn2r42 (vomeronasal 2, receptor 42)	0.17	1.36	1.29	enough cells to score	inactive
Parp16 (poly (ADP-ribose) polymerase family, member 16)		2.34	1.19	fewer than 50 cells per well; well left out of scoring	inactive
Elf2 (E74-like factor 2)	-0.76	1.36	1.27	enough cells to score	inactive
Serpinb9 (serine (or cysteine) peptidase inhibitor, clade B, member 9)	-0.99	1.44	1.38	enough cells to score	inactive
Smpd2 (sphingomyelin phosphodiesterase 2, neutral)		1.46	1.29	fewer than 50 cells per well; well left out of scoring	inactive
Ep300 (E1A binding protein p300)	-2.11	1.46	1.09	enough cells to score	active
Il36b (interleukin 36B)	0.01	1.52	1.34	enough cells to score	inactive
Ifna1 (interferon alpha 1)	-0.69	1.38	1.3	enough cells to score	inactive
